No constants are given. Whether binding was seen depends on the method and setting. Some entries that bind do so weakly or less than the wild type.
Legend:
[1] = target: Strep-tag integrin β1 cytoplasmic tail (human) (UniProt P05556); assay: pull-down; TwinStrep-tagged integrin tails (about 2.5 μg) on Strep-Tactin Sepharose beads; 2 μM His-SUMO protein in 50 mM Tris pH 8, 150 mM NaCl, 10% glycerol, 0.05% Tween, 10 μM ZnCl2, 2 h at 4°C; eluted with 50 mM biotin; western blot; both purified
[2] = target: Strep-tag integrin β3 cytoplasmic tail, wild type (not stated (human or mouse cDNA cloned)) (UniProt P05106); assay: as above

By UniProt entry, the sequences of proteins in these tests, tags left out. Residues count along the entry.
UniProt P05556, residues 752-798: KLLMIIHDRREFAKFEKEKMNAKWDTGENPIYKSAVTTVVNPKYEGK
UniProt P05106, residues 742-788: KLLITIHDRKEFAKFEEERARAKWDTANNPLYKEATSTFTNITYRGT
UniProt Q96AC1: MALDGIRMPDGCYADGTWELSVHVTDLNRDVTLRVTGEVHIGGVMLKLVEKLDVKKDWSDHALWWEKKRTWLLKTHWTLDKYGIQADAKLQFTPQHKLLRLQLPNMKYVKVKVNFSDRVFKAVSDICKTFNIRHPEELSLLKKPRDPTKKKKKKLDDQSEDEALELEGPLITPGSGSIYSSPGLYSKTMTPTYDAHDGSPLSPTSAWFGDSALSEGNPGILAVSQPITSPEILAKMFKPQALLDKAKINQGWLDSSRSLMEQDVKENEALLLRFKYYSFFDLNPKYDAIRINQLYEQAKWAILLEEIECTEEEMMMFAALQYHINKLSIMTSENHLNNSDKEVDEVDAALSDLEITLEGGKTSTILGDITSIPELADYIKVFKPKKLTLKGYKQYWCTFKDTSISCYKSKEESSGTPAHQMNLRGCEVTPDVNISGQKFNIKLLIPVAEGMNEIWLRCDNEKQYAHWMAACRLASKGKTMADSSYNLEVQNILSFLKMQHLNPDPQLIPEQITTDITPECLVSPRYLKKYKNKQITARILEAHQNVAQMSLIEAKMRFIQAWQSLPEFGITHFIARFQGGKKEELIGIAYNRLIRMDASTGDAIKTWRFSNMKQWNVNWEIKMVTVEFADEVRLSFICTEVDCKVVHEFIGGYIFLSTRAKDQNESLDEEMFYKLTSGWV

His6SUMO-kindlin2 (from UniProt Q96AC1 1-680)
binding [1]: binds
binding [2]: binds

— publication PMC11374337 (2024)
